Values from PubChem BioAssay AID686937 (Drosophila RNAi Screening Center, 2013)

Assay: 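Knock-downs that reduce output of a secreted reporter enzyme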 (primary screen)
Cell system: Drosophila S2 cells expressing secreted horseradish peroxidase
Reagent: long dsRNA against Drosophila genes
Time to read-out: about 5.5 days (5 days dsRNA, then 12 h reporter induction)
Conditions: reporter expression induced after 5 days of dsRNA, read 12 h later; inducer not stated
Measurement: 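After 5 days of dsRNA and 12 h of reporter induction, medium peroxidase read by chemiluminescence and scored as per-plate z-score; higher values mean more reporter released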
Direction: z-score: higher = more reporter secreted into medium
The screen tested about 23,000 reagents; shown is an unselected part of those that have a named target and a result. 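Reduced-secretion tags in replicate 1 do not always agree with the z-scores; no criterion for assigning the tags was given.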 Names joined by + are all predicted targets of the reagent. Further read-outs or replicates are left out here. The record does not give: the amount of reagent.

The opening 4 records as a preview:
veil [DRSC06892] | z-score, replicate 1: 0.18
CG14762 [DRSC05073] | z-score, replicate 1: 0.62
CG14762 [DRSC06496] | z-score, replicate 1: 0.31
Tcs3 [DRSC10461] | z-score, replicate 1: 0.21

Results, from the start:
veil [DRSC06892] | z-score, replicate 1: 0.18
CG14762 [DRSC05073] | z-score, replicate 1: 0.62
CG14762 [DRSC06496] | z-score, replicate 1: 0.31
Tcs3 [DRSC10461] | z-score, replicate 1: 0.21
CG17118 [DRSC02579] | z-score, replicate 1: -0.13
rempA [DRSC00327] | z-score, replicate 1: 0.24
CG11007 [DRSC06023] | z-score, replicate 1: -0.71
Or59a [DRSC04631] | z-score, replicate 1: 0.03
Gfat1 [DRSC21219] | z-score, replicate 1: 0.64
mtsh [DRSC03070] | z-score, replicate 1: 0.38
Rpn11 [DRSC03422] | z-score, replicate 1: -9.19
Ranbp21 [DRSC19447] | z-score, replicate 1: -0.01
CG17217 [DRSC02592] | z-score, replicate 1: 0.26
CG11037 [DRSC11631] | z-score, replicate 1: 0.14
Egm [DRSC07319] | z-score, replicate 1: 0.3
Egm [DRSC22860] | z-score, replicate 1: 0.8
kra [DRSC12320] | z-score, replicate 1: 0.13
CG3687 [DRSC06850] | z-score, replicate 1: 0.37
CG1532 [DRSC20516] | z-score, replicate 1: 0.34
Mst87F [DRSC16747] | z-score, replicate 1: -0.06
Cp18 [DRSC11120] | z-score, replicate 1: 0.13
CG5114 [DRSC10482] | z-score, replicate 1: 0.01
Ir76b [DRSC10831] | z-score, replicate 1: 0.08
Vha55 [DRSC16896] | z-score, replicate 1: 0.19
CG1764 [DRSC19779] | z-score, replicate 1: 0.22
CG14220 [DRSC19577] | z-score, replicate 1: -1.97
elfless [DRSC02451] | z-score, replicate 1: 0.37
Tektin-C [DRSC09741] | z-score, replicate 1: -2.83
CG8064 [DRSC16373] | z-score, replicate 1: 0.41
Duba [DRSC10582] | z-score, replicate 1: 0.49
Or47a [DRSC07491] | z-score, replicate 1: 0.21
CG2444 [DRSC19846] | z-score, replicate 1: 0.09
CG31205 [DRSC13438] | z-score, replicate 1: -2.66
Pstk + Tim9b [DRSC19504] | z-score, replicate 1: 0.34
Pstk + Tim9b [DRSC20292] | z-score, replicate 1: 0.52
Hr78 [DRSC11866] | z-score, replicate 1: 0.09
Edem1 [DRSC18573] | z-score, replicate 1: 0.02
CG17721 [DRSC15253] | z-score, replicate 1: 0.33
Pgant8 [DRSC10801] | z-score, replicate 1: -0.55
CG12849 [DRSC04129] | z-score, replicate 1: 0.2
Bro [DRSC08149] | z-score, replicate 1: 0.17
CG18766 [DRSC15936] | z-score, replicate 1: 0.34
muskelin [DRSC07273] | z-score, replicate 1: 0.37
CG13230 [DRSC06350] | z-score, replicate 1: 0.29
Prosbeta1 [DRSC07159] | z-score, replicate 1: -5.97
Tsp66A + CG42661 + CG42660 [DRSC10233] | z-score, replicate 1: 0.37
CG8206 [DRSC20093] | z-score, replicate 1: 0.22
CG1750 [DRSC15240] | z-score, replicate 1: 0.6
CG18404 [DRSC15323] | z-score, replicate 1: -2.4
GNBP3 [DRSC11170] | z-score, replicate 1: 0.37
TyrR [DRSC13259] | z-score, replicate 1: 0.35
TyrR [DRSC16242] | z-score, replicate 1: 0.43
